Assay [1] concerns the target T1, EGFP-ORP5 (UniProt Q9H0X9).
T1 sequence: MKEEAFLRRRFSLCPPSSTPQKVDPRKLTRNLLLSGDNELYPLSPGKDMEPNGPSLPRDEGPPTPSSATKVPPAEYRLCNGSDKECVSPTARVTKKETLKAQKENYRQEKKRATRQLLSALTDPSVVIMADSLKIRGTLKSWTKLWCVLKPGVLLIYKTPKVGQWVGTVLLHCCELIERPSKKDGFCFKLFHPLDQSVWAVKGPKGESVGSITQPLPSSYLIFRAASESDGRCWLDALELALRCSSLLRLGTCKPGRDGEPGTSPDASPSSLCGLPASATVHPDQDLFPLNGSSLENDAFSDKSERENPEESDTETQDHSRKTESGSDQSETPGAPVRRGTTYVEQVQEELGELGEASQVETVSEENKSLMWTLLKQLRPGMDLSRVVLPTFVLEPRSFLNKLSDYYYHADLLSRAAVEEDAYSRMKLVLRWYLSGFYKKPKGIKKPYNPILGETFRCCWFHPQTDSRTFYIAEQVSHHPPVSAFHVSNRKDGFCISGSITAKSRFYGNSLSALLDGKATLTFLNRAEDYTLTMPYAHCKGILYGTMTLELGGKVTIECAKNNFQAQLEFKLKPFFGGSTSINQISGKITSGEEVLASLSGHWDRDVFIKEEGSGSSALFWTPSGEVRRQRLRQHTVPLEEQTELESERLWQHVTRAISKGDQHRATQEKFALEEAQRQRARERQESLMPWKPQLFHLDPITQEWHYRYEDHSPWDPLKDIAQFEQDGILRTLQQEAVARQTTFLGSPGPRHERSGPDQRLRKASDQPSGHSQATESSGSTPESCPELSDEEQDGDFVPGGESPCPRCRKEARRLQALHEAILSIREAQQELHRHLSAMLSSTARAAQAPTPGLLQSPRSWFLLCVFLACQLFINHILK
Briefly: co-IP; GFP-trap agarose beads on lysates of HeLa cells co-transfected with FLAG-Sec22b and EGFP-ORP8, EGFP-ORP5 or EGFP; lysis buffer 50 mM Tris, 120 mM NaCl, 40 mM HEPES, 0.5% digitonin, 0.5% CHAPS, pH 7.36; 1 h at 4 °C; blots with anti-GFP and anti-FLAG.

Amino acid sequences for entries named in this document (tags omitted).
UniProt O75396: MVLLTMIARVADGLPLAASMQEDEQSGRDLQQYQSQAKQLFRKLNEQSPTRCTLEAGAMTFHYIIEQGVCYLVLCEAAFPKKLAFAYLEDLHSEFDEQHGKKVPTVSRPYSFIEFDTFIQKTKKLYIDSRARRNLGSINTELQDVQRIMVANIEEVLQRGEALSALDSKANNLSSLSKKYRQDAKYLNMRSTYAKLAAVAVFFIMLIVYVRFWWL

Assay [2] addresses T2, EGFP-ORP8 (UniProt Q9BZF1).
T2 sequence: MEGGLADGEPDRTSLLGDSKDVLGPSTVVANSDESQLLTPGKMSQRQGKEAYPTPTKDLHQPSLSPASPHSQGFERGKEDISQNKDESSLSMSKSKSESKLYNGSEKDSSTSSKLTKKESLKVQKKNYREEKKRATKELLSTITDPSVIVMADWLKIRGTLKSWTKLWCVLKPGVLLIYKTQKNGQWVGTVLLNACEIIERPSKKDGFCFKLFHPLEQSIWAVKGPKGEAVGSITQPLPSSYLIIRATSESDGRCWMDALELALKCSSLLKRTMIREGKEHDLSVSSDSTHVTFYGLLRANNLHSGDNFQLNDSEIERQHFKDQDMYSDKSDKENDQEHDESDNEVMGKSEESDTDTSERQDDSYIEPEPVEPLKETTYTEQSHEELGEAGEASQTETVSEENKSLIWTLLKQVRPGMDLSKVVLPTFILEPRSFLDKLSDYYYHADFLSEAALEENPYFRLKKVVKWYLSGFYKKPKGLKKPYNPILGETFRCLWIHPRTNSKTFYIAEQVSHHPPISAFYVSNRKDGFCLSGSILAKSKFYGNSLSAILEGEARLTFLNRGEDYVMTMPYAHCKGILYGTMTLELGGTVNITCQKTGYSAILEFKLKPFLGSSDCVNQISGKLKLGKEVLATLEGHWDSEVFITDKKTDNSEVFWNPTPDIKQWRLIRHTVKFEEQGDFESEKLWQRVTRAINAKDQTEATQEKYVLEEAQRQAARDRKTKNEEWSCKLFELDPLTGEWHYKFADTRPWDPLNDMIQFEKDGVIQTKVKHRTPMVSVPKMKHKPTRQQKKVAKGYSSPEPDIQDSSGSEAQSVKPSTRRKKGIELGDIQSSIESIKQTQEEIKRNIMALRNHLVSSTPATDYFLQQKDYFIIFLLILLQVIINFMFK
Described as above.

The source of these data is article PMC10550925.

No constants are given. Whether binding was seen depends on the method and setting. In cells and extracts the contact can be indirect. Some entries that bind do so weakly or less than the wild type. Tags and fused reporters may be left off the sequences shown.

On to FLAG-Sec22b (from UniProt O75396 1-215), for which the binding result in assay [1] and in assay [2] was “binds” in each case.
